PubChem BioAssay AID652259 | Drosophila RNAi Screening Center – 2013
The screen tested about 22,000 reagents; this is an unselected part of those with a known target gene and a result. Over the whole deposit, 233 (1.1%) got an active call. 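Light values are raw, unnormalised plate reads; the ratio scores behind the reporter calls were not deposited.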 Unmarked entries are inactive. The numbers tell different reagents against one gene apart. Names joined by + are all predicted targets of the reagent. No sequences are given here. Not given: the amount of reagent, the time to read-out, the dose of the treatment.

Screen: 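Genome-wide hunt for genes that control Wingless pathway activity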 (primary screen)
Cell system: Drosophila clone 8 imaginal disc epithelial cells
Reagents: long dsRNA against Drosophila genes
Challenge: pathway stimulated by co-transfected Wingless expression plasmid
Detection: 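Firefly luciferase from a tcf-site Wingless reporter, measured alongside co-transfected Renilla luciferase that tracks transfection; pathway stimulated by a Wingless plasmid; the firefly-to-Renilla ratio is not deposited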
Direction: firefly reporter light: higher = more Wg reporter light, before normalisation; Renilla control light: higher = more transfected or surviving cells
Rule for the call: 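a knock-down is a candidate when at least two out of four statistical tests show it departing from its plate mean; one test alone signals a weak candidate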
Calls: active = candidate regulator (raises or lowers reporter); inactive = not a candidate

What is on record for dpr10 (defective proboscis extension response 10) #1?
firefly reporter light, replicate 1: 4268; Renilla control light, replicate 1: 1616

Which result is listed for dpr10 (defective proboscis extension response 10) #2?
firefly reporter light, replicate 1: 4253; Renilla control light, replicate 1: 2256

How did the screen score dpr10 (defective proboscis extension response 10) #3?
firefly reporter light, replicate 1: 7878; Renilla control light, replicate 1: 2709

What is on record for dpr10 (defective proboscis extension response 10) #4?
firefly reporter light, replicate 1: 5282; Renilla control light, replicate 1: 2294

What did the screen give for su(w[a]) (suppressor of white-apricot)?
firefly reporter light, replicate 1: 1241; firefly reporter light, replicate 2: 4632; Renilla control light, replicate 1: 580; Renilla control light, replicate 2: 1202

For CG34265, what was measured?
firefly reporter light, replicate 1: 3564; Renilla control light, replicate 1: 1772

With CG9259, how do the results read?
firefly reporter light, replicate 1: 2343; firefly reporter light, replicate 2: 4981; Renilla control light, replicate 1: 662; Renilla control light, replicate 2: 2118

With fng (fringe) #1, what does the deposit list?
firefly reporter light, replicate 1: 3208; Renilla control light, replicate 1: 1669

How did the screen score fng (fringe) #2?
firefly reporter light, replicate 1: 2432; Renilla control light, replicate 1: 1404

What is on record for fng (fringe) #3?
firefly reporter light, replicate 1: 4.49e5; firefly reporter light, replicate 2: 4.10e5; Renilla control light, replicate 1: 1.81e5; Renilla control light, replicate 2: 1.84e5

What did the screen give for Rab3GAP1 (RAB3 GTPase activating protein subunit 1) #1?
firefly reporter light, replicate 1: 3097; firefly reporter light, replicate 2: 5976; Renilla control light, replicate 1: 909; Renilla control light, replicate 2: 2153

For Rab3GAP1 (RAB3 GTPase activating protein subunit 1) #2, how do the results read?
firefly reporter light, replicate 1: 4011; firefly reporter light, replicate 2: 10102; Renilla control light, replicate 1: 1411; Renilla control light, replicate 2: 3253

2 entries from above, ordered by “Renilla control light, replicate 1”, low to high:
dpr10 (defective proboscis extension response 10) #4 — firefly reporter light, replicate 1 = 5282; Renilla control light, replicate 1 = 2294
dpr10 (defective proboscis extension response 10) #3 — firefly reporter light, replicate 1 = 7878; Renilla control light, replicate 1 = 2709

Next records follow.
For Gmppb (GDP-mannose pyrophosphorylase B), what was measured?
firefly reporter light, replicate 1: 4960; Renilla control light, replicate 1: 1176

How did the screen score CG8738?
firefly reporter light, replicate 1: 4113; firefly reporter light, replicate 2: 4912; Renilla control light, replicate 1: 1149; Renilla control light, replicate 2: 3028

For CG7272, what does the deposit list?
firefly reporter light, replicate 1: 8427; Renilla control light, replicate 1: 3104

Which result is listed for Tep3 (Thioester-containing protein 3)?
firefly reporter light, replicate 1: 2728; firefly reporter light, replicate 2: 9520; Renilla control light, replicate 1: 290; Renilla control light, replicate 2: 3145

With Gr89a (Gustatory receptor 89a), what does the deposit list?
firefly reporter light, replicate 1: 12774; Renilla control light, replicate 1: 4877

Which result is listed for Ccs (Copper chaperone for superoxide dismutase)?
firefly reporter light, replicate 1: 2459; firefly reporter light, replicate 2: 5369; Renilla control light, replicate 1: 810; Renilla control light, replicate 2: 1959

With CG17782, how do the results read?
firefly reporter light, replicate 1: 21956; Renilla control light, replicate 1: 13624

How did the screen score HBS1?
firefly reporter light, replicate 1: 18804; Renilla control light, replicate 1: 5170

With CG10097 + CG10096 #1, how do the results read?
firefly reporter light, replicate 1: 4587; Renilla control light, replicate 1: 2378

For CG10097 + CG10096 #2, what was measured?
firefly reporter light, replicate 1: 10267; Renilla control light, replicate 1: 2416

What did the screen give for CG6059?
firefly reporter light, replicate 1: 1757; firefly reporter light, replicate 2: 5521; Renilla control light, replicate 1: 1068; Renilla control light, replicate 2: 2004

What is on record for CG42717?
firefly reporter light, replicate 1: 4408; Renilla control light, replicate 1: 1658

What did the screen give for fln (flightin)?
firefly reporter light, replicate 1: 8459; Renilla control light, replicate 1: 3073
